PubChem BioAssay AID1671195 – Yale University, 2021

Aim: 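Genes whose knockdown alters LDL uptake in liver cancer cells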 (primary screen)
Cell system: human Huh7 hepatoma cells
Reagents: siRNA pool against human genes, 18 nM
Timing: about 2 to 2.5 days of knockdown, then 8 h LDL uptake
Challenge: DiI-labelled LDL at 30 µg/ml for 8 h, in lipoprotein-deficient serum medium
Detection: 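Fluorescent LDL signal imaged in cells, scaled to the plate median, robust z-score for each replicate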
Reading the numbers: robust z-score: higher = more LDL uptake after knockdown
Call rule: 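a gene counts as active if at least two replicate z-scores exceed ±2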
This is an unselected part of about 22,000 reagents tested. In the full data, about 1,510 (6.9%) are marked active. 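Active includes knockdowns raising or lowering LDL uptake; positive z-scores mean more uptake, negative mean less.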 Reagent sequences are not shown.

{"target gene":"CEBPB-AS1 (GeneID 101927559)","robust z-score, replicate 1":0.216,"robust z-score, replicate 2":0.183,"robust z-score, replicate 3":0.131,"call":"inactive"}
{"target gene":"ZBTB39 (GeneID 9880)","robust z-score, replicate 1":0.75,"robust z-score, replicate 2":0.741,"robust z-score, replicate 3":0.715,"call":"inactive"}
{"target gene":"PDCD6 (GeneID 10016)","robust z-score, replicate 1":0.752,"robust z-score, replicate 2":0.6,"robust z-score, replicate 3":0.703,"call":"inactive"}
{"target gene":"OLFML3 (GeneID 56944)","robust z-score, replicate 1":1.25,"robust z-score, replicate 2":-0.0355,"robust z-score, replicate 3":0.0431,"call":"inactive"}
{"target gene":"MCM10 (GeneID 55388)","robust z-score, replicate 1":-0.736,"robust z-score, replicate 2":0.32,"robust z-score, replicate 3":1.05,"call":"inactive"}
{"target gene":"NIT1 (GeneID 4817)","robust z-score, replicate 1":-0.977,"robust z-score, replicate 2":-0.472,"robust z-score, replicate 3":-0.668,"call":"inactive"}
{"target gene":"MTA3 (GeneID 57504)","robust z-score, replicate 1":-0.291,"robust z-score, replicate 2":-0.17,"robust z-score, replicate 3":-0.108,"call":"inactive"}
{"target gene":"TRPM5 (GeneID 29850)","robust z-score, replicate 1":0.604,"robust z-score, replicate 2":-0.268,"robust z-score, replicate 3":0.514,"call":"inactive"}
{"target gene":"MTDH (GeneID 92140)","robust z-score, replicate 1":2.1,"robust z-score, replicate 2":0.596,"robust z-score, replicate 3":0.544,"call":"inactive"}
{"target gene":"MAN2A2 (GeneID 4122)","robust z-score, replicate 1":0.91,"robust z-score, replicate 2":0.962,"robust z-score, replicate 3":0.545,"call":"inactive"}
{"target gene":"ZNF584 (GeneID 201514)","robust z-score, replicate 1":1.55,"robust z-score, replicate 2":0.957,"robust z-score, replicate 3":1.51,"call":"inactive"}
{"target gene":"MIER2 (GeneID 54531)","robust z-score, replicate 1":0.945,"robust z-score, replicate 2":-0.901,"robust z-score, replicate 3":0.0258,"call":"inactive"}
{"target gene":"RNASE10 (GeneID 338879)","robust z-score, replicate 1":-0.135,"robust z-score, replicate 2":-0.371,"robust z-score, replicate 3":0.121,"call":"inactive"}
{"target gene":"NEU4 (GeneID 129807)","robust z-score, replicate 1":1.15,"robust z-score, replicate 2":1.36,"robust z-score, replicate 3":1.63,"call":"inactive"}
{"target gene":"ANKRD55 (GeneID 79722)","robust z-score, replicate 1":0.977,"robust z-score, replicate 2":0.76,"robust z-score, replicate 3":0.763,"call":"inactive"}
{"target gene":"LRP2 (GeneID 4036)","robust z-score, replicate 1":-1.05,"robust z-score, replicate 2":-0.979,"robust z-score, replicate 3":-1.31,"call":"inactive"}
{"target gene":"NQO2 (GeneID 4835)","robust z-score, replicate 1":-1.37,"robust z-score, replicate 2":-0.887,"robust z-score, replicate 3":-0.727,"call":"inactive"}
{"target gene":"NAT8B (GeneID 51471)","robust z-score, replicate 1":0.713,"robust z-score, replicate 2":-0.00618,"robust z-score, replicate 3":0.39,"call":"inactive"}
{"target gene":"KRT71 (GeneID 112802)","robust z-score, replicate 1":-0.724,"robust z-score, replicate 2":-0.52,"robust z-score, replicate 3":-0.532,"call":"inactive"}
{"target gene":"NHERF1 (GeneID 9368)","robust z-score, replicate 1":1.48,"robust z-score, replicate 2":0.44,"robust z-score, replicate 3":1.25,"call":"inactive"}
{"target gene":"H3P44 (GeneID 347376)","robust z-score, replicate 1":0.968,"robust z-score, replicate 2":0.694,"robust z-score, replicate 3":0.637,"call":"inactive"}
{"target gene":"B3GAT3 (GeneID 26229)","robust z-score, replicate 1":0.774,"robust z-score, replicate 2":1.01,"robust z-score, replicate 3":0.416,"call":"inactive"}
{"target gene":"RNF6 (GeneID 6049)","robust z-score, replicate 1":-0.232,"robust z-score, replicate 2":-0.43,"robust z-score, replicate 3":0.0961,"call":"inactive"}
{"target gene":"TRAF7 (GeneID 84231)","robust z-score, replicate 1":0.0983,"robust z-score, replicate 2":0.335,"robust z-score, replicate 3":-0.159,"call":"inactive"}

Reformatted: entries from further up
target gene,"robust z-score, replicate 1","robust z-score, replicate 2","robust z-score, replicate 3",call
ZBTB39 (GeneID 9880),0.75,0.741,0.715,inactive
PDCD6 (GeneID 10016),0.752,0.6,0.703,inactive
OLFML3 (GeneID 56944),1.25,-0.0355,0.0431,inactive
MCM10 (GeneID 55388),-0.736,0.32,1.05,inactive
